Data from patent US20100255026A1.
No constants are given. Whether binding was seen depends on the method and setting. Some entries that bind do so weakly or less than the wild type.

The chains behind the UniProt entries cited, without tags or fusion partners. Where a name states a change or a piece, a line headed by the entry shows the natural chain unless it says otherwise. Residues count along the entry.
UniProt P94217: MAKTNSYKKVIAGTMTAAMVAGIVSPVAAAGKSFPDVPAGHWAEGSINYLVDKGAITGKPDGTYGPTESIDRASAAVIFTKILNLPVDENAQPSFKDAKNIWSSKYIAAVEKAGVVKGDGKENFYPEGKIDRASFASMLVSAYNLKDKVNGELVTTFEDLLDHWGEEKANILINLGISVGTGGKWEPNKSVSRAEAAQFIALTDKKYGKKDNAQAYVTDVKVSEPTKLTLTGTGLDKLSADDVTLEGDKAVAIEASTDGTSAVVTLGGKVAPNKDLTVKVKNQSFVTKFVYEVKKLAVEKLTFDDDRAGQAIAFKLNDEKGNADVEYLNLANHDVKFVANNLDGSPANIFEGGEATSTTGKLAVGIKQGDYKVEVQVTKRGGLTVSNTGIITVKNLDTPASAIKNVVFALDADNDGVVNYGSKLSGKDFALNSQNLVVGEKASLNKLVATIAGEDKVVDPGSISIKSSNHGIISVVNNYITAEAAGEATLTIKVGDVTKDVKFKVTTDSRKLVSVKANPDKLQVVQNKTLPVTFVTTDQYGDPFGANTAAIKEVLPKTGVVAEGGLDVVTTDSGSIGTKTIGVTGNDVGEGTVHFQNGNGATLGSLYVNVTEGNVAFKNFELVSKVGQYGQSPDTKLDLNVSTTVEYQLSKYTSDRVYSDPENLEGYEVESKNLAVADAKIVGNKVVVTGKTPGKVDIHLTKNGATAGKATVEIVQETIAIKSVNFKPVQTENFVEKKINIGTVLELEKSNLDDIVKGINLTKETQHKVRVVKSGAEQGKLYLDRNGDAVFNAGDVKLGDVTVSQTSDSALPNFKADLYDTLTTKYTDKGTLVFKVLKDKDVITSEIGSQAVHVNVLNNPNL
UniProt P05046, residues 33-285: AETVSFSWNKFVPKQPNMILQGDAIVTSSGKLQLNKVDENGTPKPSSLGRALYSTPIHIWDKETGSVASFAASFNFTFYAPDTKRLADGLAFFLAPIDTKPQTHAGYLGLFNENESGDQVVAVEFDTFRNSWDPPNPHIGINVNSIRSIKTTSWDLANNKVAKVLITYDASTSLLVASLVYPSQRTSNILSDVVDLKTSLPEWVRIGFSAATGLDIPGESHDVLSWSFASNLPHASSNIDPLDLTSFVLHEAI

Target: B. anthracis S-layer protein EA1 (Bacillus anthracis) (UniProt P94217)
Experiment: lectin column purification of a urea extract of spores, SDS-PAGE (FIG. 3)

For “SBA lectin bound to agrose beads (from UniProt P05046 33-285)”, the binding was “binds”.
